Measured values from patent US7439418B2, “Anti-microbial peptide known as halocyntin, gene coding for said peptide, vector, transformed organism and composition containing said peptide” (Centre National de la Recherche Scientifique - CNRS, priority 2003, dated 2008).
At least one peptide structure holds a part that was inferred or is arguable (an end, a ring closure or a residue). Where no end group is shown, it is not given here.

Tested on: gram-positive bacteria
Assay: Spectrum of antibacterial activity (summary)
Type: cell-based
Details: summary of Table 1

FWGHIWNAVKRVGANALHGAVTGALS [halocyntin]
bacteriolytic activity: powerful bacteriolytic activity
